Test results taken from the supplement of paper PMC6078165.

Test system: Hs578T
Test: relative JC-1 red fluorescence (viability) vs pre-drug, coculture with fibroblast (fraction); higher = more viable cancer cells
Settings: 100 µM
Method: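 JC-1 labelled TNBC cells cocultured 1:1 (1,500 cells each) with CellTrace Violet stained primary or stromal fibroblasts in 384-well plates in FluoroBrite medium, treated with one of 42 anticancer drugs at 0.1, 1, 10 or 100 uM. JC-1 red fluorescence (mitochondrial integrity in cancer cells only) was read by plate reader every 8 h for 72 h. Values are normalised to each well's pre-drug value. The stock of one drug was tenfold lower, so its dose labels may be too high.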

CCC1=C[C@@H]2CN(C1)Cc1c([nH]c3ccccc13)[C@@](C(=O)OC)(c1cc3c(cc1OC)N(C)[C@H]1[C@@](O)(C(=O)OC)[C@H](OC(C)=O)[C@]4(CC)C=CCN5CC[C@]31[C@@H]54)C2 [Vinorelbine]
Settings	relative JC-1 red fluorescence
8 h	0.8213
16 h	0.51
24 h	0.427
32 h	0.3901
40 h	0.3372
48 h	0.295
56 h	0.2658
64 h	0.224
72 h	0.201

relative JC-1 red fluorescence
Settings	8 h	16 h	24 h	32 h	40 h	48 h	56 h	64 h	72 h
coculture fibroblast: C12385	0.721	0.436	0.282	0.173	0.128	0.102	0.0776	0.0624	0.0454
coculture fibroblast: H6013	0.752	0.3942	0.328	0.282	0.24	0.213	0.18	0.16	0.123
coculture fibroblast: H6019	0.802	0.443	0.34	0.243	0.208	0.185	0.164	0.148	0.13
coculture fibroblast: H6076	0.787	0.511	0.398	0.363	0.311	0.292	0.253	0.219	0.191
coculture fibroblast: H6231	0.804	0.509	0.372	0.34	0.281	0.258	0.22	0.19	0.169
coculture fibroblast: HADF	0.5804	0.335	0.267	0.235	0.208	0.189	0.162	0.15	0.116
coculture fibroblast: HCFa	0.894	0.642	0.501	0.412	0.36	0.338	0.305	0.28	0.235
coculture fibroblast: HCPF	0.962	0.579	0.351	0.297	0.239	0.214	0.202	0.158	0.131
coculture fibroblast: HHSteC	0.698	0.322	0.267	0.223	0.187	0.159	0.136	0.117	0.0833
coculture fibroblast: HMF	0.872	0.526	0.38	0.356	0.293	0.264	0.229	0.2	0.171
coculture fibroblast: HPFa	0.878	0.657	0.47	0.378	0.342	0.309	0.264	0.243	0.199
coculture fibroblast: HUF	0.796	0.682	0.594	0.438	0.36	0.303	0.265	0.24	0.217
coculture fibroblast: Hs27A	0.894	0.627	0.443	0.361	0.322	0.305	0.267	0.251	0.202
coculture fibroblast: Hs343T	0.832	0.459	0.406	0.385	0.322	0.289	0.249	0.212	0.191
coculture fibroblast: WS1	0.656	0.306	0.253	0.172	0.128	0.111	0.084	0.0697	0.0541

The reference is the same well before dosing, and untreated signal decays as well.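 Labels refer to human fibroblasts, largely primary: uterine (C12385, HUF), lung (H6013), bone (Hs27A), adrenal (HADF), skin (WS1), plus mammary HMF and breast cancer-associated Hs343T. Cancer lines are basal-like or mesenchymal-like triple-negative breast cancer. The paper counts as hits responses shifting over 3x the replicate standard deviation. The tissue of the other fibroblasts is not given here.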
